Measurements taken from PubChem BioAssay AID2549 (National Center for Advancing Translational Sciences (NCATS), 2010).
Among all 240,000 compounds or so, about 1,300 (0.54%) were called active. The shares of active, inactive and inconclusive entries below differ from those in the screen. Calls come from the whole dose curve; as a rule, active = well fitted inhibition curve with a large enough effect; inconclusive = small, poorly fitted or top-dose-only effect; inactive = flat fitted curve, though single readings scatter. Where the call is inconclusive, the potency comes from a doubtful curve fit.

The chains behind the UniProt entries cited, without tags or fusion partners. Where a name states a change or a piece, a line headed by the entry shows the natural chain unless it says otherwise.
UniProt P46063: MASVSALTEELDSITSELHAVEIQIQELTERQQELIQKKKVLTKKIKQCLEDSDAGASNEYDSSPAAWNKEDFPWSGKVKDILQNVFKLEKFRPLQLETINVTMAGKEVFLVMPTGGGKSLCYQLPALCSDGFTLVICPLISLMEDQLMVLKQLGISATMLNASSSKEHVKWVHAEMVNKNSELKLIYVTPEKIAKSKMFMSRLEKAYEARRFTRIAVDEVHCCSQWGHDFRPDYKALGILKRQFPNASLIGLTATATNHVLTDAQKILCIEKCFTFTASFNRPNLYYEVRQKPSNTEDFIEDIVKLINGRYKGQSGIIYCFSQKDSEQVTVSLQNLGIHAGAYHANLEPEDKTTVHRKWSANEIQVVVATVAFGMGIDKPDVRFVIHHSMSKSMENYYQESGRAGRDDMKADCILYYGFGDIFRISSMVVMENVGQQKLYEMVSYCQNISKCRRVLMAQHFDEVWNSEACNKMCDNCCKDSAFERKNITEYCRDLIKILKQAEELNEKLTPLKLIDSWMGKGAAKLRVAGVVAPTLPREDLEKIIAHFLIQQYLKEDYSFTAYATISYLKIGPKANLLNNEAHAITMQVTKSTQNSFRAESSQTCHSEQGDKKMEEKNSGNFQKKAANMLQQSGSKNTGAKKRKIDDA

These compounds were tested against ATP-dependent DNA helicase Q1 (Homo sapiens) (UniProt P46063) (assay: qHTS Assay for Inhibitors of RecQ-Like Dna Helicase 1 (RECQ1)). Settings: RECQ1 DNA unwinding, red fluorescence kinetic read; activity, negative = inhibition: at 57.3 µM (top of the series); series mostly up to 57.3 µM.
Outline: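 50 nM RECQ1T1 preincubated 15 min with compound in Tris pH 8.0 buffer with MgCl2, DTT, Tween-20 and 2.5 ug/ml poly(dI-dC); started with 200 nM TAMRA/BHQ-2 forked duplex and 2 mM ATP. Unwinding read as fluorescence (525/598 nm), two reads 2 h apart.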
Note: nearly all actives have a fitted effect of over 30% in size.
Potency is the fitted concentration of half-maximal effect.
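Throughout, for activity, negative = inhibition: plate controls were vehicle for no effect and no enzyme for full effect.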

Structure (SMILES)	Potency	activity, negative = inhibition	outcome
COCCCNC(=O)c1c(F)c(F)c(F)c(F)c1F	inconclusive: 39.8 µM [inhibitor, single point]	–	–
Cc1cc(C)cc(Oc2ncnc3c2ncn3Cc2c(Cl)cccc2Cl)c1	inconclusive: 39.8 µM [inhibitor, single point]	–	–
CC1CCCCC12NC(=O)N(CC(=O)Nc1sc3c(c1C(N)=O)CCC3)C2=O (stereo not given)	inconclusive: 35.5 µM [inhibitor, single point]	–	–
COc1cc2c(c(OC)c1OC)-c1c(cc3c(c1OC)OCO3)C[C@H](C)[C@@](C)(O)C2	inconclusive: 1 µM [inhibitor, partial curve]	–	–
Nc1c(CO)nnn1-c1ccccc1	–	inactive: 9.96%	–
CN1CCN(CCc2nc3cc(NC(=O)COc4ccccc4)ccc3n2C)CC1	inconclusive: 6.31 µM [inhibitor, single point]	–	–
CCOC(=O)C1=C(CN2CCC(C)CC2)NC(=O)NC1c1ccc(Cl)cc1 (stereo not given)	inconclusive: 0.0282 µM [inhibitor, full curve, poor fit]	–	–
CC(=O)n1cc([C@@H]2C=C(C(=O)NCc3ccccc3)O[C@H](OCCCCO)C2)c2ccccc21	–	inactive: 7.68%	–
Cc1cc(/C=C2\Sc3ccccc3N2C)cc(C)[n+]1CC1CCCO1 (stereo not given)	inconclusive: 39.8 µM [inhibitor, single point]	–	–
COc1ccc(C2SCCN2C(=S)Nc2cccc(C(F)(F)F)c2)cc1 (stereo not given)	inconclusive: 0.794 µM [inhibitor, full curve]	–	–
Cc1cc(OCc2cccc(Cl)c2)c(C)cc1CN1CCOCC1	inconclusive: 39.8 µM [inhibitor, single point]	–	–
Cc1c(NC(=O)COC(=O)c2cc(-c3cccc4ccccc34)nc3ccccc23)c(=O)n(-c2ccccc2)n1C	inconclusive: 31.6 µM [inhibitor, single point]	–	–
C=C(C)C(=O)Nc1cccc(C2=NOC3(C2)C[C@H](C(N)=O)N(C(=O)c2ccccc2C(=O)c2ccccc2)C3)c1 (stereo not given in full)	inconclusive: 28.2 µM [inhibitor, single point]	–	–
C=CCN1C(=O)/C(=C\c2ccc(OC(=O)c3ccco3)c(OC)c2)SC1=S	–	inactive: -9.49%	–
CC(C)(C)c1csc(NC(=O)Cc2cccs2)n1	inconclusive: 39.8 µM [inhibitor, single point]	–	–
CC1(C)CC(=O)C(C=Nc2ccc(N)cc2)=C(O)C1	inconclusive: 6.31 µM [inhibitor, single point]	–	–
CCOc1cc(N2CCOCC2)c(OCC)cc1NC(C)C(=O)N1CCN(CC)CC1 (stereo not given)	inconclusive: 35.5 µM [inhibitor, single point]	–	–
Nc1c(S(=O)(=O)O)cc(Nc2ccc(Cl)cc2)c2c1C(=O)c1ccccc1C2=O	active: 31.6 µM	–	–
Cn1c(SCC(=O)Nc2ccc3nc(SCC(=O)N4CCCC4)sc3c2)nnc1-c1ccc(N)cc1	active: 0.631 µM	–	–
COc1ccc(OC)c(-c2[nH]nc3c2C(c2ccco2)C(C#N)=C(N)O3)c1 (stereo not given)	inconclusive: 7.08 µM [inhibitor, single point]	–	–
O=C(O)CCCN1C(=O)/C(=C/c2cn(-c3ccccc3)nc2-c2cccs2)SC1=S	inconclusive: 35.5 µM [inhibitor, single point]	–	–
CC(=O)[C@@H]1[C@@H]2C(=O)N(C3CCCCC3)C(=O)[C@@H]2C2c3ccccc3C=CN21 (stereo not given in full)	–	–	inactive
Oc1ccccc1-c1nnc(SCCN2CCOCC2)n1Cc1ccccc1	active: 1.58 µM	–	–
CCCC(=O)Nc1ccc(-c2csc(N/N=C\c3ccncc3)n2)cc1	inconclusive: 39.8 µM [inhibitor, single point]	–	–

Four structures from above, ordered by molar mass, rising:
Structure (SMILES)	Potency	activity, negative = inhibition	outcome
CC1(C)CC(=O)C(C=Nc2ccc(N)cc2)=C(O)C1	inconclusive: 6.31 µM [inhibitor, single point]	–	–
CC(=O)[C@@H]1[C@@H]2C(=O)N(C3CCCCC3)C(=O)[C@@H]2C2c3ccccc3C=CN21 (stereo not given in full)	–	–	inactive
CCCC(=O)Nc1ccc(-c2csc(N/N=C\c3ccncc3)n2)cc1	inconclusive: 39.8 µM [inhibitor, single point]	–	–
CC(=O)n1cc([C@@H]2C=C(C(=O)NCc3ccccc3)O[C@H](OCCCCO)C2)c2ccccc21	–	inactive: 7.68%	–

Additional entries follow.

Structure (SMILES)	Potency	activity, negative = inhibition	outcome
CCn1c(O)c(/C=N/N=C2CCCCC2)c2cc(C3=NNC(=O)CC3)ccc21	inconclusive: 35.5 µM [inhibitor, single point]	–	–
Cc1ccc(NC(=O)CN2C(=O)N/C(=C\c3cccn3-c3cccc(C(=O)O)c3)C2=O)cc1	inconclusive: 31.6 µM [inhibitor, single point]	–	–
CN(NS(=O)(=O)c1ccc(Br)cc1)c1nc(C(F)(F)F)nc2ccccc12	inconclusive: 2.51 µM [inhibitor, partial curve]	–	–
c1csc(Cc2nn3c(-c4ccncc4)nnc3s2)c1	active: 10 µM	–	–
COc1ccc(N=Cc2sc3ccccc3c2Cl)cc1	–	–	inactive
CC(c1ccccc1)n1c(S(=O)(=O)O)nc2ccccc21 (stereo not given)	–	inactive: 7.53%	–
Cc1nc(Nc2ccncc2)c2oc3ccccc3c2n1	–	inactive: -2.77%	–
c1ccc(Cn2nnc3c(N4CCC5(CC4)OCCO5)ncnc32)cc1	–	inactive: -5.52%	–
Cc1ccsc1/C=N/n1c(-c2ccccn2)n[nH]c1=S	–	inactive: 1.6%	–
CCN(CC)CCNc1ccc(CO)c2sc3ccccc3c(=O)c12	inactive	–	–
N#Cc1nc(-c2ccc(OCc3ccccc3)cc2)oc1NCCCn1ccnc1	–	inactive: -15.2%	–
O=c1c(O)c(-c2ccc(O)c(O)c2)oc2ccccc12	active: 2.24 µM	–	–
S=C1Cc2ccccc2N1	inconclusive: 39.8 µM [inhibitor, single point]	–	–
O=C(Cc1cccs1)NC1C(=O)N2C(C(=O)[O-])=C(C[n+]3ccccc3)CSC12 (stereo not given)	inconclusive: 28.2 µM [inhibitor, single point]	–	–
N#Cc1c(N)sc(=S)c2c1CCCCC2	inconclusive: 31.6 µM [inhibitor, single point]	–	–
CC1(NC(=O)CC[N+](C)(C)CCO)CS(=O)(=O)CC1S(=O)(=O)[O-] (stereo not given)	–	inactive: -6.38%	–
O=C1c2nc3cc(-c4ccco4)[nH]n3c(=O)c2CN1Cc1ccccc1	active: 11.2 µM	–	–
O=C(Nc1ccccc1)C1=C[C@@H](C2CC2)C[C@@H](OCCCCO)O1	inconclusive: 39.8 µM [inhibitor, single point]	–	–
COC(=O)C1=C(C(=O)OC)[C@@H]2N(C)c3ccc(OC)cc3[C@@]23C[C@@H](C(=O)OC)N(S(=O)(=O)c2c(C)noc2C)C3=N1	–	inactive: -16.4% [at 11.5 µM]	–
CC1(C)OCC(CSC2=C(SCC3COC(C)(C)O3)C(=O)c3ncccc3C2=O)O1 (stereo not given)	–	inactive: -4.92%	–
Cc1cc(O)ccc1N=Cc1c(C(F)(F)F)[nH][nH]c1=O	active: 8.91 µM	–	–
O=C(O)COc1ccc2ccccc2c1	–	inactive: -7.45%	–
CCNC(=S)N/N=C(\C)c1ccc2c(c1)OCCO2	inconclusive: 3.55 µM [inhibitor, full curve]	–	–
O=C(O)c1ccc(-c2ccc(/C=C3\NC(=O)N(Cc4ccc(Cl)cc4)C3=O)o2)cc1Cl	inconclusive: 39.8 µM [inhibitor, single point]	–	–

Structure (SMILES)	Potency	activity, negative = inhibition	outcome
COc1ccc(-c2cc(C(=O)O)no2)cc1	inconclusive: 28.2 µM [inhibitor, single point]	–	–
CCc1ccc2[nH]c(=O)c(CN(Cc3ccccc3OC)Cc3nnnn3Cc3ccco3)cc2c1	inconclusive: 39.8 µM [inhibitor, single point]	–	–
CCOC(=O)C1=C(CSc2nc(-c3ccccc3)ccc2C#N)OC(N)=C(C#N)C1c1ccc(OC)cc1 (stereo not given)	active: 10 µM	–	–
O=[N+]([O-])c1cc(Br)c(O)c(/C=N/Nc2nnnn2-c2cccc3ccccc23)c1	inconclusive: 25.1 µM [inhibitor, partial curve, poor fit]	–	–
N#C/C(=C\c1cccs1)C(=O)c1ccccc1Cl	–	–	inactive
O=C(O)c1ccccc1Nc1ccc(CCc2ccc(Cl)c(Cl)c2)cc1	inconclusive: 39.8 µM [inhibitor, single point]	–	–
Cc1ccc2nc(SCC(=O)Nc3ccc(C)c([N+](=O)[O-])c3)[nH]c2c1	inconclusive: 35.5 µM [inhibitor, single point]	–	–
CCOC(=O)c1cnc(SCc2ccc(C)cc2)nc1N	inconclusive: 1.58 µM [inhibitor, full curve, poor fit]	–	–
CNC(=S)N1CCN(C(=O)C2CCCO2)CC1 (stereo not given)	inconclusive: 0.794 µM [inhibitor, partial curve, poor fit]	–	–
N#C/C(=C/c1ccc(N2CCCCC2)o1)C(=O)Nc1ccc2ccccc2c1	inconclusive: 4.47 µM [inhibitor, single point]	–	–
O=C1CCCC(O)=C1N=Nc1c(Cl)cc(C(F)(F)F)cc1Cl	active: 12.6 µM	–	–
CCC(c1nnnn1CS(=O)(=O)c1ccc(C)cc1)N1CCN(c2nc3ccccc3s2)CC1 (stereo not given)	inconclusive: 0.158 µM [inhibitor, partial curve, poor fit]	–	–
C/C(=N\NC(=O)Cc1cccn1C)c1ccco1	inconclusive: 39.8 µM [inhibitor, single point]	–	–
O=C(Nc1cccc(Cl)c1)N1CCCC1	inconclusive: 0.126 µM [inhibitor, full curve, poor fit]	–	–
C/C(N)=C(/C#N)C(=O)CSc1nc2cc(Cl)ccc2c(=O)n1Cc1ccco1	inconclusive: 2.82 µM [inhibitor, partial curve]	–	–
CN(C)C(=O)c1ccc(-c2cncnc2NCc2cccnc2)cc1	–	–	inactive
CC#CCN1c2ccccc2[C@]23C[C@@H](C(=O)OC)N(S(=O)(=O)c4ccc5c(c4)OCCN5C)C2=NC(C(=O)OC)=C(C(=O)OC)[C@H]13	inconclusive: 3.16 µM [inhibitor, partial curve, poor fit]	–	–
Nc1c(N=Nc2ccc(-c3ccc(N=Nc4cc(S(=O)(=O)O)c5ccccc5c4N)cc3)cc2)cc(S(=O)(=O)O)c2ccccc12	active: 10 µM	–	–
CCN(CC)C(=S)NC(=O)c1ccc(OC)c(Br)c1	inconclusive: 0.0355 µM [inhibitor, full curve]	–	–
CC(=O)c1ccc(N=C2SCCCN2C(=O)C2CCCCC2)cc1	inconclusive: 35.5 µM [inhibitor, partial curve]	–	–
COCc1ccc(O)c2ncccc12	–	inactive: -0.897%	–
CC(=O)c1cccc(NC(=O)COC(=O)CCc2ccc(S(=O)(=O)N3CCOCC3)cc2)c1	inconclusive: 39.8 µM [inhibitor, single point]	–	–
